Data taken from patent US12077534B2, “Aza-heterobicyclic inhibitors of MAT2A and methods of use for treating cancer” (Les Laboratoires Servier SAS, priority 2018, dated 2024).
The structures given here were assigned with low confidence; some may be wrong.

Chains of the proteins cited; added tags and fusions are not shown.
UniProt P31153, whole entry: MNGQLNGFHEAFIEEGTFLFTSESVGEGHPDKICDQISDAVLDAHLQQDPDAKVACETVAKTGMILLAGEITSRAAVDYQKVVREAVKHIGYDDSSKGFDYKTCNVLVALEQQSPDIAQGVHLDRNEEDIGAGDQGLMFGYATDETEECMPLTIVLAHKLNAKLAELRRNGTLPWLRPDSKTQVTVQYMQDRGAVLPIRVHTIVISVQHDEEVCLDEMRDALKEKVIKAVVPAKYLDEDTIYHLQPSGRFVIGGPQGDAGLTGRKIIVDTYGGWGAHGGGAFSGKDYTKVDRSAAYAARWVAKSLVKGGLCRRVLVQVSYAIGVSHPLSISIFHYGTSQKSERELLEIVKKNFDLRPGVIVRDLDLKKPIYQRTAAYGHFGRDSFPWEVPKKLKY

Key:
[1] = biological target: MAT2A homodimer (Homo sapiens, UniProt P31153); experiment: MAT2A biochemical assay (phosphate release, PiColorLock Gold); details: read-out: Enzyme Inhibition; recombinant MAT2A homodimer, 60 min pre-incubation, 25° C.
Procedure: Mat2A protein was expressed by recombinant baculovirus in SF9 infected cells using the Bac to Bac system cloned into the pFASTBAC1 vector (Invitrogen, Carlsbad, CA). Recombinant MAT2A was isolated from the cell lysate of 150 g of infected cells using HP Ni sepharose column chromatography. Recombinant MAT2A homodimer was eluted with 250 and 500 mM imidazole, and fractions containing MAT2A were identified by sodium dodecyl sulfate polyacrylamide gel electrophoresis and pooled.
For determination of the inhibitory potency of compounds against the MAT2A homodimer, protein was diluted to 4 μg/mL in assay buffer (50 mM Tris, pH 8.0, 50 mM KCl, 15 mM MgCl2, 0.3 mM EDTA, 0.005% [w/v] bovine serum albumin [BSA]). Test compound was prepared in 100% dimethyl sulfoxide (DMSO) at 50× the desired final concentration. A 1 μL volume of compound dilution was added to 40 μL of enzyme dilution and the mixture was allowed to equilibrate for 60 minutes at 25° C. The enzymatic assay was initiated by the addition of 10 μL of substrate mix (500 μM ATP, pH 7.0, 400 μM L-methionine in 1× assay buffer), and the mixture was incubated for a further 60 minutes at 25° C. The reaction was halted and the liberated phosphate released by the enzyme in stoichiometric amounts by the production of S-adenosyl methionine (SAM) was measured using the PiColorLock Gold kit (Innova Biosciences, UK). […]

[2] = tested on: MAT2A activity (SAM) in HCT116 cells with deleted MTAP gene; experiment: Cellular assay of target engagement (SAM) by LC-MS/MS; assay type: cell-based; details: read-out: Cell 72 h SAM Inhibition (MTAP −/−)
Procedure: Measurement of MAT2A activity in cells was made by direct quantitation of the abundance of the product of its enzymatic activity, SAM. Cancer cells were treated with candidate MAT2A inhibitors for a suitable incubation period, and the cells were then lysed using a reagent which quenched any further enzyme activity. Soluble metabolites including SAM were collected and SAM itself was directly measured from the lysate using quantitative LC-MS/MS.
A typical assay was performed using an HCT116 human colon carcinoma cell line which was genetically engineered to delete the MTAP gene (commercially available from Horizon Discovery). This cell line was utilized because it was determined that loss of the MTAP gene predicts sensitivity to MAT2A inhibitors. Cells were plated in 96-well dishes at appropriate cell density. Following 24 hours, cells were then treated with the candidate MAT2A inhibitor. […]
To quantitate SAM levels following compound treatment, cells were gently washed once in ammonium carbonate buffer (75 mM at pH 7.4), placed on dry ice, and lysed with metabolite extraction buffer (80% cold methanol and 20% water (v/v) with acetic acid at 1M final concentration with 200 ng/mL deuterated d3-SAM as internal control). […]

[3] = tested on: HCT116 MTAP−/−; experiment: Inhibition of cellular proliferation (Cell Titer Glo), HCT116 MTAP-/-; details: read-out: 4 Day Relative Growth Inhibition (MTAP −/−), 4 days
Procedure: (§1) Test compound impact on cancer cell growth was assessed by treating cancer cells with compound for 4 days and then measuring proliferation using an ATP-based cell proliferation readout (Cell Titer Glo, Promega Corporation).
(§2) In a typical assay an isogenic pair of HCT116 human colon carcinoma cell lines which vary only in MTAP deletion status (HCT116 MTAP+/+ and HCT116 MTAP−/−) were plated in 96-well dishes at appropriate cell density. Following 24 hours, cells were then treated with the candidate MAT2A inhibitor. Prior to addition to cells, the compound was first serially diluted in 100% DMSO, typically as a 3-fold serial dilution starting at 500× top dose with 10 dose points including DMSO only control. […]
(§3) To measure inhibition of cellular proliferation, cells were allowed to equilibrate to room temperature for 30 minutes, and were then treated with 125 μL of Cell Titer Glo reagent. […] Luminescent signal was then measured using a plate-based luminometer Veritas version 1.9.2 using ATP standard curve to confirm assay reproducibility from run to run. This luminescence measure was converted to a proliferation index by subtracting from each data point the ATP luminescence signal measured from a bank (no cells) well and dividing by the ATP luminescence signal measured in 0.2% DMSO control well adjusted for signal in blank well. […]

[4] = tested on: HCT116 MTAP+/+; experiment: Inhibition of cellular proliferation (Cell Titer Glo), HCT116 MTAP+/+; details: read-out: 4 Day Relative Growth Inhibition (MTAP +/+), 4 days
Procedure: as §1, §2, §3

IC50 [1]: < 0.1 µM | IC50 [2]: < 0.1 µM | IC50 [3]: 0.1 to 1 µM | IC50 [4]: > 1 µM
SMILES: Cn1cc2cc(-n3nc4c(C(F)(F)F)cc(OCC(F)F)nc4c(-c4ccc(OC(F)F)cc4)c3=O)ccc2n1
